In PubChem BioAssay AID1471 (National Center for Advancing Translational Sciences (NCATS), 2008):
Hit rate of the full screen: of about 230,000 compounds, about 310 (0.13%) were called active. The shares of active, inactive and inconclusive entries below differ from those in the screen. The call rests on the fitted dose curve; in most records, active means well fitted activation curve with a large enough effect; inconclusive means small, poorly fitted or top-dose-only effect; inactive means no such curve, though single readings can be large or run the other way. Where the call is inconclusive, the potency comes from a doubtful curve fit.

Test: qHTS Multiplex Assay to Identify Dual Action Probes in a Cell Model of Huntington: Cytoprotection (ATP); further: nearly all actives have a fitted effect of over 45% in size;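 on cytoprotection (ATP increase): toxic huntingtin expression switched on by the ecdysone agonist tebufenozide; % of control where 0% means no effect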
Conditions: PC12 HTT-Q103 induced, ATP luminescence, 40 h; cytoprotection (ATP increase): at 56.4 µM (top of the series) unless noted
Procedure, shortened: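 Rat PC12, Q103 Htt exon1-GFP fusion, ecdysone promoter; tebufenozide inducer 100 nM final; compound titration; qHTS, 1500 cells/well; ATPlite luminescent read.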
Potency means the concentration at half of the fitted maximal effect.

Q: For Cc1cc(N=Cc2c(O)n(-c3cccc(Cl)c3)c(=O)c3ccccc23)no1, which Potency is on record?
A: inconclusive: 3.98 µM [activator, partial curve]

Q: For C[C@@H](C(=O)O)c1ccc(-c2ccccc2)c(F)c1, which Potency is on record?
A: inactive

Q: For CCNc1cccc2c1C(=O)N(C)C2=O, which cytoprotection (ATP increase) is on record?
A: inactive: 5.35% [at 10 µM]

Q: Which Potency does the source give for COc1cccc(-c2nccc(NCCc3c[nH]c4ccc(OC)cc34)n2)c1 here?
A: inactive

Q: Which Potency does the source give for CC(Cc1ccc(O)c(O)c1)C(C)Cc1ccc(O)c(O)c1 (centres undefined) here?
A: inconclusive: 31.6 µM [activator, single point]

Q: With COC(=O)C1CC1C(NC(=O)[C@@H]1CCCN1)c1ccccc1 (some centres undefined) as the molecule, how does the Potency read?
A: inconclusive: 28.2 µM [activator, single point]

Q: Which Potency does the source give for CCc1cc2cc(C)cc(C)c2nc1SCC(=O)N1CCN(C(=O)c2ccco2)CC1 here?
A: inconclusive: 1.58 µM [activator, partial curve]

Q: Which Potency does the source give for Cn1cccc1C(=O)N1CCC2(CCCN(c3cccc(-c4ccccc4)c3)C2)CC1 here?
A: inactive

Q: For CC(=O)N1CCN(CC(=O)Nc2ccc(SC(F)F)cc2)CC1, which Potency is on record?
A: active: 5.62 µM

Q: Which Potency does the source give for COC(=O)CNC(=O)[C@@]1(C)C=C[C@@H](Cc2ccccc2)N1C(=O)OC here?
A: inconclusive: 35.5 µM [activator, single point]

Q: Which Potency does the source give for O=C(CC1SC(=O)N(Cc2cccc3ccccc23)C1=O)Nc1nccs1 (centres undefined) here?
A: inconclusive: 0.631 µM [activator, full curve, poor fit]

Q: For C/C(CC(=O)Nc1ccc2c(c1)OCO2)=N\NC(=O)C(c1ccccc1)c1ccccc1, which Potency is on record?
A: inconclusive: 1.26 µM [activator, single point]

Q: Which Potency does the source give for COc1ccc2c(c1)O[C@@H](c1cccc(C(F)(F)F)c1)[C@H](OC(=O)NCc1ccc3c(c1)OCO3)C2=O here?
A: inconclusive: 3.16 µM [activator, single point]

Q: Which Potency does the source give for O=C(c1cnccn1)N1CCC2(CC1)CN(c1ccncc1)C2 here?
A: inconclusive: 11.2 µM [activator, single point]

Q: Which Potency does the source give for Cc1cc(Nc2ccccc2Br)n2nc(C)nc2n1 here?
A: inactive

Q: For N#Cc1c(C(F)(F)F)cc(-c2cccs2)nc1N1CCCCC1, which Potency is on record?
A: inconclusive: 0.708 µM [activator, partial curve]

Q: Which Potency does the source give for O=C(CCl)Nc1cc(S(=O)(=O)N2CCCCCC2)ccc1Cl here?
A: inconclusive: 3.16 µM [activator, single point]

Q: Which Potency does the source give for Cc1c(C(=O)NCC(C)C)sc2nc(-c3ccc(F)cc3)cn12 here?
A: inactive

Q: With COc1cc(CCNC(C)=O)c(C(=O)/C=C/c2cccc(OC)c2OC)cc1OC as the molecule, how does the Potency read?
A: inconclusive: 11.2 µM [activator, single point]
